This assay concerns the target BTN2A1-HA (human) (UniProt Q7KYR7). Nature of the assay: co-immunoprecipitation from co-transfected cells, IP anti-FLAG, western blot. A general note: Immunoblotting shows a protein as a band on a membrane.

Protein sequences, listed by entry. Tags and fused reporters are not part of them. Residues count along the entry.
UniProt Q7KYR7, residues 29-527: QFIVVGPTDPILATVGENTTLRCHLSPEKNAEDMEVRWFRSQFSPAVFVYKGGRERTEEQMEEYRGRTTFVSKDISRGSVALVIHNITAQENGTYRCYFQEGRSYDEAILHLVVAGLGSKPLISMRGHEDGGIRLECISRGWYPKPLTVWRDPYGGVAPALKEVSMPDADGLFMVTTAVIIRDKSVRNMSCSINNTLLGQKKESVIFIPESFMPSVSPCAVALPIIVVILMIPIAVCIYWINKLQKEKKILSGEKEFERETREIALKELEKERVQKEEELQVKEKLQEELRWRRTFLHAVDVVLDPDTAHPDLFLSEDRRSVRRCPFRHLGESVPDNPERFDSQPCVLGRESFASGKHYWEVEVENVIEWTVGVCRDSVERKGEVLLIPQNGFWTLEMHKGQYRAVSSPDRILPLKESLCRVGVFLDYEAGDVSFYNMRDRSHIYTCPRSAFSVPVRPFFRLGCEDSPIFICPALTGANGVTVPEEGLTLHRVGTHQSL

These are yes or no findings as the source states them, for the method shown. Binding seen in cells or lysates may run through a third protein. Some binding calls cover weakened binding; strength is not graded here. Tags and fused reporters may be left off the sequences shown.

B1: FAM-FLAG (receptor, not shown: small tags and cut ends)
chain: FYFSISCPSGKQCQQALLSGNDILLYCNSSGAHWYYLFTQGKKGRLTSLTNISNMEIMPEGSLLIKDPLPSQTGLYHCWNKNGRQVVQYEIDFQDVTTLHITHKDLGQRPLQNETLHLGSKQLIFTWWEPWQDCNRCEEPGECKRLGYRYIEEPLEEAMPCWLYLGEVLVWSSRLRPELQVEACHVQCTNNTQLRVDYVIFDNFRLDEKTEFVWLDCPLGSMYRPVNWRANDTPLTWESQLSGQDFTTFLDPSTGGRQLQVFQPAVYKCFVQQELVAQFKPAASLETLEAQWRENDAQWREARKALRGRADSVLKGLKLVLLVVTVLALLGALLKCIHPSPGRRSTQVLVVK
B1: the binding entry is listed as “binds”.

(Values after patent US20220119490A1.)
